Results from publication PMC11923385, “Rational Design, Synthesis, and Biological Assessment of Potential Indole‐Capped HDAC6 Inhibitors for Gastric Cancer Suppression” (MedComm, 2025).

Tested on: MFC cells
Format: in vivo
Details: 615 mice, oral 20 mg/kg once daily, 14 days
Experimental: Six-week-old 615 mice (male) were procured from SJA laboratory animals in Hunan, China, and acclimated to a pathogen-free environment for one week before the commencement of the experiment. Subsequently, 5 × 10^5 of gastric cancer cell MFC were subcutaneously administered into the right flank of the mice. Tumor volume was determined using the formula length × width^2/2. Upon reaching a tumor volume of 50-100 mm³, 24 mice were stratified into four groups and administered oral doses of 0, 10, or 20 mg/kg of compound 10n, as well as 20 mg/kg of SAHA, delivered once daily, separately. Following 14 days, the mice were euthanized, and their tumors and vital organs were dissected for analysis. Paraffin sections measuring 4 µm in thickness were subjected to deparaffinization and subsequently treated with 3% hydrogen peroxide to inhibit endogenous peroxidase activity. Following this, slides were prepared to prevent nonspecific antibody binding and were then exposed to primary antibodies targeting HDAC6, Ac-tubulin, Ki-67, and Tunnel. The mice involved in the study were maintained in specific pathogen-free environments, and the experimental procedures were approved by the Ethics Committee of the Zhengzhou University Health Science Centre. The animal experimentation ethics number is ZZU-URIB-2024-O-109. […]

## O=C(CCCCCCC(=O)Nc1ccccc1)NO [SAHA, reference compound]
  tumor growth inhibition rate (TGI): 30.4%
